From PMC8417012
Results are given in words; binding and its absence hold for the method and conditions named. Some results given as binding are weak or reduced against the parent protein; the word gives no strength. Sequences can lack the tags named with a protein.

By UniProt entry, the sequences of proteins in these tests, tags left out.
UniProt Q42575: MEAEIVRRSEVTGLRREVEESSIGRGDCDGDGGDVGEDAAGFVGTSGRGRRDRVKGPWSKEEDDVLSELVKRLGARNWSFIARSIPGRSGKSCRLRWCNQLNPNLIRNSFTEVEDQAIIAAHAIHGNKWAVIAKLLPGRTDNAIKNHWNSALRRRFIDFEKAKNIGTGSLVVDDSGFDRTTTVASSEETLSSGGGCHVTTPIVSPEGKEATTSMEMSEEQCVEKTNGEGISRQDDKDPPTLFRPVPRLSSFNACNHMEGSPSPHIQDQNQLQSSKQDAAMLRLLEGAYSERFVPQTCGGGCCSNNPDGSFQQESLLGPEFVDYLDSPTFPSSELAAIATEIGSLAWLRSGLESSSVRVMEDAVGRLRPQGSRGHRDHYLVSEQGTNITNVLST
UniProt O04192: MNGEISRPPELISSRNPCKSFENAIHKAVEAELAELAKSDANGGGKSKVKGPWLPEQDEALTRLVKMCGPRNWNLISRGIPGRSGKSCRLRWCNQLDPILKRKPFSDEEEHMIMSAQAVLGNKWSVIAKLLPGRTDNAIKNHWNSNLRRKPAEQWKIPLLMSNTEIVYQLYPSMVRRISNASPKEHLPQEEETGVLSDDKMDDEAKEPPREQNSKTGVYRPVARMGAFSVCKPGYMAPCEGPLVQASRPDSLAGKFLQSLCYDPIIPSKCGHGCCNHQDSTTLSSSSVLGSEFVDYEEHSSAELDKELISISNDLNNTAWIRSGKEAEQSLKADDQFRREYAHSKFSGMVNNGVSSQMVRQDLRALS

Columns and labels:
Assay in all cases: two-hybrid; yeast; bait vector pBTM112-D9, prey plasmid pACT2; growth on SDIV medium without uracil and His; spots photographed 1 week after plating; which partner was bait is not stated
[1] = target: T1, BPM4 (yeast two-hybrid fusion) (Arabidopsis thaliana) (UniProt Q9SRV1)
T1 sequence: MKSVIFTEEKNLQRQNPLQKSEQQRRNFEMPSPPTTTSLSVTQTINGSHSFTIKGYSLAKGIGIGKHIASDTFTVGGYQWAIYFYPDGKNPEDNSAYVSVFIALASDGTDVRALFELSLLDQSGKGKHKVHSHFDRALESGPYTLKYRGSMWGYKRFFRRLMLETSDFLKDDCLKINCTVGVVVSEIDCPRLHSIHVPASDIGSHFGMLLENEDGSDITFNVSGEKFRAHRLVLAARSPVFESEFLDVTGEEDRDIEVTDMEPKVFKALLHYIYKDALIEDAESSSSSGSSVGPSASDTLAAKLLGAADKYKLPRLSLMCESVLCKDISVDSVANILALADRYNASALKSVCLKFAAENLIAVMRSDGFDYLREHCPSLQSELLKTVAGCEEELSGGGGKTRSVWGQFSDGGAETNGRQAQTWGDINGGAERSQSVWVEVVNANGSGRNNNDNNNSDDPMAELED

[2] = target: T2, BPM3 (yeast two-hybrid fusion) (Arabidopsis thaliana) (UniProt O22286)
T2 sequence: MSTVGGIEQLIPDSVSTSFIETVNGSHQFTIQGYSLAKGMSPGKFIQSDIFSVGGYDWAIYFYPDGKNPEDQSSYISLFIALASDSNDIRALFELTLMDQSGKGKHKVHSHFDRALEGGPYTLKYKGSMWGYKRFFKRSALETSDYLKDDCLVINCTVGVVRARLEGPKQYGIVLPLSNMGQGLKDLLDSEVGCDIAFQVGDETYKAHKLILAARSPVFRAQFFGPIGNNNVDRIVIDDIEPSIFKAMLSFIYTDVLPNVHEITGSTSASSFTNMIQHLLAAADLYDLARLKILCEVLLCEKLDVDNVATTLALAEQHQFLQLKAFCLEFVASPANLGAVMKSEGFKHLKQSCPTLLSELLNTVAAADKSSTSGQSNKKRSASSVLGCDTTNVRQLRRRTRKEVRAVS

[3] = target: T3, BPM1 (yeast two-hybrid fusion) (Arabidopsis thaliana) (UniProt Q8L765)
T3 sequence: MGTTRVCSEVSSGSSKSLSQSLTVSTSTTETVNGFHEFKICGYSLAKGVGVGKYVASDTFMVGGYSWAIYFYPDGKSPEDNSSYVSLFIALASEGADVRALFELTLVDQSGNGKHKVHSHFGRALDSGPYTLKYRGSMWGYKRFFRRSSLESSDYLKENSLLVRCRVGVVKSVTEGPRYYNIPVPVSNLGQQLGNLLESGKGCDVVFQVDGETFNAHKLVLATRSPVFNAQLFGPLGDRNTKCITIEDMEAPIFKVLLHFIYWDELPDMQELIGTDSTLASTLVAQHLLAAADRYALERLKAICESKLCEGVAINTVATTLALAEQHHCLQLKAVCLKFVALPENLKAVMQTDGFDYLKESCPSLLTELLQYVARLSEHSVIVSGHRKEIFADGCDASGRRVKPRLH

[4] = target: T4, BPM6 (yeast two-hybrid fusion) (Arabidopsis thaliana) (UniProt A1L4W5)
T4 sequence: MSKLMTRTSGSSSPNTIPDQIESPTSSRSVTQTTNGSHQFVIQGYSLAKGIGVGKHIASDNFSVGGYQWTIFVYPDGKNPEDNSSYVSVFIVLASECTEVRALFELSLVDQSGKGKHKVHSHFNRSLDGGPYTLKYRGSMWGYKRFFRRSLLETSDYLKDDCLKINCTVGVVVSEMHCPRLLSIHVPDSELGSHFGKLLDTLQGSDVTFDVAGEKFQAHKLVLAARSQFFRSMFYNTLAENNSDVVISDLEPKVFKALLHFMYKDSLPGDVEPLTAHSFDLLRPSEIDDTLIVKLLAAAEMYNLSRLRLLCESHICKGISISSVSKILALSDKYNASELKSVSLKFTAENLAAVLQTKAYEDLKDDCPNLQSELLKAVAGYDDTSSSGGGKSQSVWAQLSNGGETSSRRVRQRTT

[5] = target: T5, BPM5 (yeast two-hybrid fusion) (Arabidopsis thaliana) (UniProt Q1EBV6)
T5 sequence: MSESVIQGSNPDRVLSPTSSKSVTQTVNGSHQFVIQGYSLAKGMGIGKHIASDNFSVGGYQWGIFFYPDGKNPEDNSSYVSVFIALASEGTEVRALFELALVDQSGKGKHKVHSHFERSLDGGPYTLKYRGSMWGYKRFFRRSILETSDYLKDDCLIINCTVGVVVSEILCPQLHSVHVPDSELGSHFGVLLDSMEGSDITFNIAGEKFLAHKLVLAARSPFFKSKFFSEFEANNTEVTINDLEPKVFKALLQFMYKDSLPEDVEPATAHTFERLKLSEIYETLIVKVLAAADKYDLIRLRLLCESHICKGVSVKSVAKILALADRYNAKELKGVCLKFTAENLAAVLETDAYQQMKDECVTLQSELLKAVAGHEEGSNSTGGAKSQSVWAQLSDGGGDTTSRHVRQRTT

[6] = target: T6, BPM2 (yeast two-hybrid fusion) (Arabidopsis thaliana) (UniProt Q9M8J9)
T6 sequence: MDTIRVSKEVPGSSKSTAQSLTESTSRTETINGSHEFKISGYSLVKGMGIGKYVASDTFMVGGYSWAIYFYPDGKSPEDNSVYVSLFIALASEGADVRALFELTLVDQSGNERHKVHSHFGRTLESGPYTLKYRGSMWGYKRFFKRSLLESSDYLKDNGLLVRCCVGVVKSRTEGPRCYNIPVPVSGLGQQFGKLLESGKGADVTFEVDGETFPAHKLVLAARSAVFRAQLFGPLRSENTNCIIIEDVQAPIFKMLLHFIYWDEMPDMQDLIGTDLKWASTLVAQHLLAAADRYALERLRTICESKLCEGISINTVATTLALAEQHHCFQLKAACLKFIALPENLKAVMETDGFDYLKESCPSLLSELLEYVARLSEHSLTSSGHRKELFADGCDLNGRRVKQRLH

Measured: binding

MYB1 (yeast two-hybrid fusion) (from UniProt Q42575 1-393)
binds: [1] | [2] | [3] | [4] | [5] | [6]

MYB25 (yeast two-hybrid fusion) (from UniProt O04192 1-367)
binds: [1] | [2] | [3] | [4] | [5] | [6]
